# Literature values as cited in patent US20110293746A1, “Modulation of Gsk-3Beta and Method of Treating Proliferative Disorders” (Agency For Science, Technology and Research, priority 2004, published 2011).
# System: GSK-3α and GSK-3β
# Conditions: in vitro, Coghlan et al. 2000; cited from earlier work
structure (smiles),measurement,value
O=C1NC(=O)C(c2ccccc2[N+](=O)[O-])=C1Nc1ccc(O)c(Cl)c1 [SB-415286],inhibition of GSK-3α versus GSK-3β,equally effective
